This is an account of results in patent US20250145708A1 (GOOD T CELLS, published 2025).

No constants are given. Whether binding was seen depends on the method and setting. Some binding calls cover weakened binding; strength is not graded here.

The labels stand for the following.
B1: A7 clone monoclonal antibody (Production Example 1) (antibody, mouse IgG2a, V domains shown)
VH: EVQLLESGGGLVQPGGSLRLSCAASGFTFSGYDMSWVRQAPGKGLEWVSLIYPDSGNKYYADSVKGRFTISRDNSKNTLYLQMNSLRAEDTAVYYCARDAGLSWAGAFDYWGQGTLVTVSS
VL: QSVLTQPPSASGTPGQRVTISCSGSSSNIGSNYVTWYQQLPGTAPKLLIYSDSHRPSGVPDRFSGSKSGTSASLAISGLQSEDEADYYCGSWDYSLSAYVFGGGTKLTVLR
B2: B8 clone monoclonal antibody (Production Example 6) (antibody, mouse IgG2a, V domains shown)
VH: EVQLLESGGGLVQPGGSLRLSCAASGFTFSDYYMSWVRQAPGKGLEWVSGISHDSGSKYYADSVKGRFTISRDNSKNTLYLQMNSLRAEDTAVYYCARHWTTFDYWGQGTLVTVSS
VL: QSVLTQPPSASGTPGQRVTISCSGSSSNIGSNNVTWYQQLPGTAPKLLIYANSNRPSGVPDRFSGSKSGTSASLAISGLRSEDEADYYCGAWDYSLSAYVFGGGTKLTVLR
B3: E7 clone monoclonal antibody (Production Example 3) (antibody, mouse IgG2a, V domains shown)
VH: EVQLLESGGGLVQPGGSLRLSCAASGFTFSSYDMSWVRQAPGKGLEWVSGISPDGSNIYYADSVKGRFTISRDNSKNTLYLQMNSLRAEDTAVYYCAKVGLRCRYEACSYAYGMDVWGQGTLVTVSS
VL: QSVLTQPPSASGTPGQRVTISCSGSSSNIGSNYVSWYQQLPGTAPKLLIYSDSHRPSGVPDRFSGSKSGTSASLAISGLRSEDEADYYCATWDSSLNGYVFGGGTKLTVLR
B4: G3 clone monoclonal antibody (Production Example 4) (antibody, mouse IgG2a, V domains shown)
VH: EVQLLESGGGLVQPGGSLRLSCAASGFTFSNYDMSWVRQAPGKGLEWVSSISPSSGSIYYADSVKGRFTISRDNSKNTLYLQMNSLRAEDTAVYYCAKDLDAFWRPSFDYWGQGTLVTVSS
VL: QSVLTQPPSASGTPGQRVTISCTGSSSNIGNNNVNWYQQLPGTAPKLLIYSDSHRPSGVPDRFSGSKSGTSASLAISGLRSEDEADYYCGSWDDSLSAYVFGGGTKLTVLR
B5: C8 clone monoclonal antibody (Production Example 2) (antibody, mouse IgG2a, V domains shown)
VH: EVQLLESGGGLVQPGGSLRLSCAASGFTFSNYYMSWVRQAPGKGLEWVSGISPGDSSTYYADSVKGRFTISRDNSKNTLYLQMNSLRAEDTAVYYCAKGLYSNPNEPFDYWGQGTLVTVSS
VL: QSVLTQPPSASGTPGQRVTISCTGSSSNIGSNYVSWYQQLPGTAPKLLIYDDSQRPSGVPDRFSGSKSGTSASLAISGLRSEDEADYYCGTWDYSLNGYVFGGGTKLTVLR
B6: D9 clone monoclonal antibody (Production Example 7) (antibody, mouse IgG2a, V domains shown)
VH: EVQLLESGGGLVQPGGSLRLSCAASGFTFSNYAMSWVRQAPGKGLEWVSAIYPGGGSIYYADSVKGRFTISRDNSKNTLYLQMNSLRAEDTAVYYCARDILPCPWGRCYYDYAMDVWGQGTLVTVSS
VL: QSVLTQPPSASGTPGQRVTISCSDSSSNIGSNTVSWYQQLPGTAPKLLIYADNNRPSGVPDRFSGSKSGTSASLAISGLRSEDEADYYCGTWDYSLSGYVFGGGTKLTVLR
B7: H6 clone monoclonal antibody (Production Example 8) (antibody, mouse IgG2a, V domains shown)
VH: EVQLLESGGGLVQPGGSLRLSCAASGFTFSNYAMSWVRQAPGKGLEWVSVISHGGGSTYYADSVKGRFTISRDNSKNTLYLQMNSLRAEDTAVYYCARVISNCHLGVCYYSNGMDVWGQGTLVTVSS
VL: QSVLTQPPSASGTPGQRVTISCSGSSSNIGNNDVYWYQQLPGTAPKLLIYSDSQRPSGVPDRFSGSKSGTSASLAISGLRSEDEADYYCGTWDYSLSGYVFGGGTKLTVLR
notes: also called H6 monoclonal antibody

One test deals with T1, Lrig-1 protein (leucine-rich and immunoglobulin-like domains 1) expressed on the surface of L cells (human) (UniProt Q96JA1).
T1 sequence: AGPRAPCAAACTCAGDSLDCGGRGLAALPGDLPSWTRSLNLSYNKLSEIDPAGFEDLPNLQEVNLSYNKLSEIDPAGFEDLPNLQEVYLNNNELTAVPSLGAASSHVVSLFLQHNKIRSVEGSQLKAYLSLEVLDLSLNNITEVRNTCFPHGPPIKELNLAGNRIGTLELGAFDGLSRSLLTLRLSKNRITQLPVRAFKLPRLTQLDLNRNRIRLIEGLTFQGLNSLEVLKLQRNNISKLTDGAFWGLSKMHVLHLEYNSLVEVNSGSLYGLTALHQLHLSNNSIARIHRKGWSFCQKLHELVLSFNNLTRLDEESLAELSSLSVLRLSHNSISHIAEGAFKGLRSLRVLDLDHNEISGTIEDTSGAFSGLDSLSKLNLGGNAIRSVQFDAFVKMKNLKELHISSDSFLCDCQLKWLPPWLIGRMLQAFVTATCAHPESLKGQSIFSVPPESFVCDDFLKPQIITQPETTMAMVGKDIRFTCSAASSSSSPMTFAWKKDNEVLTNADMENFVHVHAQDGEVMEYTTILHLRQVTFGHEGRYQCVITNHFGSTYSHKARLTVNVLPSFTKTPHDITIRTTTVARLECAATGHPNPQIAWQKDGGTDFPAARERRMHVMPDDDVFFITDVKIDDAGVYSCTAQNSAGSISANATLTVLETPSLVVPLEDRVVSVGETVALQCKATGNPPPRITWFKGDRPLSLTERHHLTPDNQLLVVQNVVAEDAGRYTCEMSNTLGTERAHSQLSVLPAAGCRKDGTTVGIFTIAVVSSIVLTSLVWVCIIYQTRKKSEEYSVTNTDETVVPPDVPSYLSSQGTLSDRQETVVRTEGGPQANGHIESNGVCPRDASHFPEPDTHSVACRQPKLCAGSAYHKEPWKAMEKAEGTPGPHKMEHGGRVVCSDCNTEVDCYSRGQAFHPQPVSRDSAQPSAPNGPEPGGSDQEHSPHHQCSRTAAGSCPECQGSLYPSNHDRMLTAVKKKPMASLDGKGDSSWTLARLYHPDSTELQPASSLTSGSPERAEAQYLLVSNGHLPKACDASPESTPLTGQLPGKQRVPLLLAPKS
Nature of the test: FACS on L cells stably expressing Lrig-1, eFluor 670 anti-mouse secondary antibody.
As to B1, the binding entry is recorded as “binds”.
Same read-out and setting: under B2 stands “binds”; under B3, “binds”; under B4, “binds”.
The same measure, in the same setting: under B5 stands “binds”.
On the same count and under the same terms, the result for B6 reads “binds”; that for B7, “binds”.

A further test concerns the target T2, Lrig-1 epitope peptide SEQ ID NO: 29.
T2 sequence (peptide): KGDRPLSLTERHH
Nature of the test: Lrig-1 peptide microarray (15-mers, 14 aa overlap), H6 at 1, 10 and 100 µg/ml.
B7: the binding entry was “binds”.
